Source: PMC9964033
Results are given in words; binding and its absence hold for the method and conditions named. In cells and extracts the contact can be indirect. Here binding means that the protein was enriched with, or labelled near, the bait; the list need not be complete.

Protein sequences, listed by entry. Tags and fused reporters are not part of them.
UniProt P97452: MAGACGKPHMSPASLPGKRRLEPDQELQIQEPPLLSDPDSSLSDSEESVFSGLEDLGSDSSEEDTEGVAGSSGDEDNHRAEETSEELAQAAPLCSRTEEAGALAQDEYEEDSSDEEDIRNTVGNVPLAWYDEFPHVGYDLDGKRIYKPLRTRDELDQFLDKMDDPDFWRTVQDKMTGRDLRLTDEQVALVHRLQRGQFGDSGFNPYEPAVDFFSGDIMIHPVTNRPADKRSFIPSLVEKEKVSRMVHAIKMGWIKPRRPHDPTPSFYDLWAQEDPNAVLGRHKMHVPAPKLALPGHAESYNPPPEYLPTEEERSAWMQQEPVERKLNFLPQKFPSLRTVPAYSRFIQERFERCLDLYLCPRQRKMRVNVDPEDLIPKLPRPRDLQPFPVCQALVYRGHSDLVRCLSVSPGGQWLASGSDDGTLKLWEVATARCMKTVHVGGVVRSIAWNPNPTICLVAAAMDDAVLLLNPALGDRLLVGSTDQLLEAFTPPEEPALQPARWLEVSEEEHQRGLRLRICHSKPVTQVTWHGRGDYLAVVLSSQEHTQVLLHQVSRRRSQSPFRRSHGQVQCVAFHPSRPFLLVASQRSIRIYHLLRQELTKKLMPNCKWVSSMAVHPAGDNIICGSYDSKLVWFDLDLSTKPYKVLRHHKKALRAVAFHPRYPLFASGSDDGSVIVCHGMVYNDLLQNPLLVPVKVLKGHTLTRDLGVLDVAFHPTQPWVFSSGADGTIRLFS
UniProt Q61584: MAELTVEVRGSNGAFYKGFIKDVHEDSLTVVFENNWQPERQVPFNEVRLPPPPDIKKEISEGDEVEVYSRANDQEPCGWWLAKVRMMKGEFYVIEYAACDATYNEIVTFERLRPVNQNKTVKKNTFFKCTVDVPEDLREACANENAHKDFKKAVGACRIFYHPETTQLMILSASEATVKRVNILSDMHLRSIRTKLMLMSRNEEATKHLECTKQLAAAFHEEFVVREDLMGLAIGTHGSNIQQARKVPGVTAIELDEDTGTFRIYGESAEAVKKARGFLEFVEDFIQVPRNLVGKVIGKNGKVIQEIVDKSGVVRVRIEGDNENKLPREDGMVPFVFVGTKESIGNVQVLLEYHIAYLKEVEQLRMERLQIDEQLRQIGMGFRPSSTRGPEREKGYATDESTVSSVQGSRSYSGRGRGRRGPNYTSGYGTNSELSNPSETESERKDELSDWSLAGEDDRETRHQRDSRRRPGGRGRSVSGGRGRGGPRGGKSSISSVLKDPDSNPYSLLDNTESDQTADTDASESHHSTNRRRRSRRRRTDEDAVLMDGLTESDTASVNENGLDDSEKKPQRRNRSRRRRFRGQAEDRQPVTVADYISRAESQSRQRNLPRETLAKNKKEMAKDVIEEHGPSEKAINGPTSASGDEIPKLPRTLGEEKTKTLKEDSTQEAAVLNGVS
UniProt Q8CIP4: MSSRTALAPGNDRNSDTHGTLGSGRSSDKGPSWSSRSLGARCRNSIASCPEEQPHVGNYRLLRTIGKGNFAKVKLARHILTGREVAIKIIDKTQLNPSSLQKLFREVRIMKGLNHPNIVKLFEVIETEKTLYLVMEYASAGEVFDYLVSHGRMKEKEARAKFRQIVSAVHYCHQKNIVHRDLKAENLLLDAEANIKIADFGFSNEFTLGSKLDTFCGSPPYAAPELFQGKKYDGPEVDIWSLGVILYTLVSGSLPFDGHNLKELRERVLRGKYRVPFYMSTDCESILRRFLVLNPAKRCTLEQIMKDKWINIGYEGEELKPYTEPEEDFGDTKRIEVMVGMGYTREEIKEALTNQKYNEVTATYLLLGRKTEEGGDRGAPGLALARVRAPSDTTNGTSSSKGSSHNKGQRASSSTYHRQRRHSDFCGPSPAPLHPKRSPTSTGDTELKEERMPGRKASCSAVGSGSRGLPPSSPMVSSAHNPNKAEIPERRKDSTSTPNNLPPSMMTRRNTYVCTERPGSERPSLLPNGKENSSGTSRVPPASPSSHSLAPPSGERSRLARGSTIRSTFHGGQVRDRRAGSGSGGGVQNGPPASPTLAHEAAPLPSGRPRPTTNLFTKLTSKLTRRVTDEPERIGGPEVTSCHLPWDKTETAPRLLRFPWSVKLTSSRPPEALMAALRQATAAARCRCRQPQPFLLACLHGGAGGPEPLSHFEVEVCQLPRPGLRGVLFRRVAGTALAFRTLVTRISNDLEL
UniProt P54276: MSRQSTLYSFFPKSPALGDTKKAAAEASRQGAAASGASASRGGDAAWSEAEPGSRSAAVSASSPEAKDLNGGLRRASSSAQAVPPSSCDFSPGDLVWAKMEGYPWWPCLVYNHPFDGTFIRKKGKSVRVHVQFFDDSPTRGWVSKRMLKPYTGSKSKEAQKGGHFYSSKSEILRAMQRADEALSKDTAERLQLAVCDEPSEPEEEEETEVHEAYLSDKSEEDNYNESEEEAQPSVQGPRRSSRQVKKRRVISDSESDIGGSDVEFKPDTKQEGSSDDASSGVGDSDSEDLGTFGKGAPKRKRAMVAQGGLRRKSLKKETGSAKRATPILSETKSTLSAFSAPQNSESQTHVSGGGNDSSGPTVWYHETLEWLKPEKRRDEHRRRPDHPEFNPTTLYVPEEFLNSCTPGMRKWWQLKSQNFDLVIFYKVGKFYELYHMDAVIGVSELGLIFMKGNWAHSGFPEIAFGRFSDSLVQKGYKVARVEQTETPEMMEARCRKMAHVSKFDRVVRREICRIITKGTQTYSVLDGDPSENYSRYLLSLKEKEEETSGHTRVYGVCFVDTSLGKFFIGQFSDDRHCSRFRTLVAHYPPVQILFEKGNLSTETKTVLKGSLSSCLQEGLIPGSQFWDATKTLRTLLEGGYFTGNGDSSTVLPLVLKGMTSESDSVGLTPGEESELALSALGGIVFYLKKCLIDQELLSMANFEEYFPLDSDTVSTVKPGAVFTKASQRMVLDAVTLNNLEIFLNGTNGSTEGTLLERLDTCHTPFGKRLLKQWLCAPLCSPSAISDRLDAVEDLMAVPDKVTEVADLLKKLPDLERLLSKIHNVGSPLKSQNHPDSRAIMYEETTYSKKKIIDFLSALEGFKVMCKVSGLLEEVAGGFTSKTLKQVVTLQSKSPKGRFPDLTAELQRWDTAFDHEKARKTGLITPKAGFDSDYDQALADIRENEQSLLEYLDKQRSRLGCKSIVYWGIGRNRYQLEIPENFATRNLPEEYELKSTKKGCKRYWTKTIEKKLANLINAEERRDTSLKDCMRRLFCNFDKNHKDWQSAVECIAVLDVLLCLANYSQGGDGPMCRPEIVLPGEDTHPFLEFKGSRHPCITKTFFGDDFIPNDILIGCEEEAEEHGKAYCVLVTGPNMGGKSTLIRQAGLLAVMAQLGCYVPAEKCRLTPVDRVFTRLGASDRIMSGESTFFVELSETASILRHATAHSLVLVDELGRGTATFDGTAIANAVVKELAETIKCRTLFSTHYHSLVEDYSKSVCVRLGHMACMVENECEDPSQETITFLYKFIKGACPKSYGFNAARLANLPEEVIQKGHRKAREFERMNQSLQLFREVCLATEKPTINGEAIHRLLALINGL
UniProt Q99NH2: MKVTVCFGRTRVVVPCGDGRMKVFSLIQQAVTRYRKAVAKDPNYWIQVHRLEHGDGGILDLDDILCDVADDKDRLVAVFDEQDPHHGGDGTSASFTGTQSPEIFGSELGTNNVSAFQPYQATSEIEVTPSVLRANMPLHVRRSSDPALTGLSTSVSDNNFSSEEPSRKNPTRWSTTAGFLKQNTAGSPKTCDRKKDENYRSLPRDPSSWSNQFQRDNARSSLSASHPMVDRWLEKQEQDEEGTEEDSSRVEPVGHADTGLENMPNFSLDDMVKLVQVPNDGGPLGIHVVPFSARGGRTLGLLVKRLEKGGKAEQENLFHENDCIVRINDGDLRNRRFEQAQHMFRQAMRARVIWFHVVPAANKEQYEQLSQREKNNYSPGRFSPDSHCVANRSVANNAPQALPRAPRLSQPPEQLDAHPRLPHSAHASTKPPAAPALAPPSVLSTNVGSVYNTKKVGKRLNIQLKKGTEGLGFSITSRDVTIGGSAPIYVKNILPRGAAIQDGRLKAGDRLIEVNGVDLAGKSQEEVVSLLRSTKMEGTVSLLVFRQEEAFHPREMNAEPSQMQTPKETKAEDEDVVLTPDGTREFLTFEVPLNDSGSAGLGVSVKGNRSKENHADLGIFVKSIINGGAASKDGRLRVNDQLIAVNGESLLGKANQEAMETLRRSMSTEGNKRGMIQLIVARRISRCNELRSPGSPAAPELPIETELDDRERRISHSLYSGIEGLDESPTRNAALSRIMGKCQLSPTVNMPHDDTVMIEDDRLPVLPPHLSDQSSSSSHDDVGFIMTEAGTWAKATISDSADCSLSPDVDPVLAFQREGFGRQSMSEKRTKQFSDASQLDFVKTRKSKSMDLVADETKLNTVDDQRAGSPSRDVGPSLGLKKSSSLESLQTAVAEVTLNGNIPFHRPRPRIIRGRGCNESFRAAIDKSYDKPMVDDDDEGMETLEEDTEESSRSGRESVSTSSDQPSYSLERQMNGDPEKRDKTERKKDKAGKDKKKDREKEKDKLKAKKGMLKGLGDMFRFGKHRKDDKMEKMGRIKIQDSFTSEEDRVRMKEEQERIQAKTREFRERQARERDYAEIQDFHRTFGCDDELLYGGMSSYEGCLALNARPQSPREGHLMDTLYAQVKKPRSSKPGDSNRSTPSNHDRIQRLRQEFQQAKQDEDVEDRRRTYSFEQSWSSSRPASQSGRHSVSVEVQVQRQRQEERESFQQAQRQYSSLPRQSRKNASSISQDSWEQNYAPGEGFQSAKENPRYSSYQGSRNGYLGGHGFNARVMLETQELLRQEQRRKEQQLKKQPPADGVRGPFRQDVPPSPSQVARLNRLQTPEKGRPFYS
UniProt Q80TJ7: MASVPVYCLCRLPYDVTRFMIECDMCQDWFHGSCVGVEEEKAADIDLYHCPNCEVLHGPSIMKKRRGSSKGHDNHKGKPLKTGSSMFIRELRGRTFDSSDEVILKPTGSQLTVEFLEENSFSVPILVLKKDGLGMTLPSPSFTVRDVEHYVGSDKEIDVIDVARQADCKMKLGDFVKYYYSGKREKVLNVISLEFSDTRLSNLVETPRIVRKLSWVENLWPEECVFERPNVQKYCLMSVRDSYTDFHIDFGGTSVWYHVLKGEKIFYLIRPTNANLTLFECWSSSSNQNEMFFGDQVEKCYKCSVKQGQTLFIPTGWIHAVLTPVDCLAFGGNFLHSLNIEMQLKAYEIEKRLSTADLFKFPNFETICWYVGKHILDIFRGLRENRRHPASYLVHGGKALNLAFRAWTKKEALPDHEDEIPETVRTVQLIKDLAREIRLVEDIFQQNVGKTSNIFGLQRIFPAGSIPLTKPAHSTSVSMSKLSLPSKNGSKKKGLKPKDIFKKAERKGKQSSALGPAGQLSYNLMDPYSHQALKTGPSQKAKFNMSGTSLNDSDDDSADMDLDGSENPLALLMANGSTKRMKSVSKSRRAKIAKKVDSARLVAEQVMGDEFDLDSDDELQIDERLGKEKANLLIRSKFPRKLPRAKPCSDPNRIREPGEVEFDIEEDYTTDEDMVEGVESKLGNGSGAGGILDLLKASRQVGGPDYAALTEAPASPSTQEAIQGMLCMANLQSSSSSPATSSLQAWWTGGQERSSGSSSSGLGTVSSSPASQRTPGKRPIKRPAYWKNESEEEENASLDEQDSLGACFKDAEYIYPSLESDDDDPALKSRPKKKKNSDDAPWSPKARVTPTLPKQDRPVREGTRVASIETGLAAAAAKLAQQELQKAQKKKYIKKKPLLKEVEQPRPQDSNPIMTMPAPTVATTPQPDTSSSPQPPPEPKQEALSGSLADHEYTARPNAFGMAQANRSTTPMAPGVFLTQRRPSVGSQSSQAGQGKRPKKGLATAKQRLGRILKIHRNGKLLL
UniProt Q8K202: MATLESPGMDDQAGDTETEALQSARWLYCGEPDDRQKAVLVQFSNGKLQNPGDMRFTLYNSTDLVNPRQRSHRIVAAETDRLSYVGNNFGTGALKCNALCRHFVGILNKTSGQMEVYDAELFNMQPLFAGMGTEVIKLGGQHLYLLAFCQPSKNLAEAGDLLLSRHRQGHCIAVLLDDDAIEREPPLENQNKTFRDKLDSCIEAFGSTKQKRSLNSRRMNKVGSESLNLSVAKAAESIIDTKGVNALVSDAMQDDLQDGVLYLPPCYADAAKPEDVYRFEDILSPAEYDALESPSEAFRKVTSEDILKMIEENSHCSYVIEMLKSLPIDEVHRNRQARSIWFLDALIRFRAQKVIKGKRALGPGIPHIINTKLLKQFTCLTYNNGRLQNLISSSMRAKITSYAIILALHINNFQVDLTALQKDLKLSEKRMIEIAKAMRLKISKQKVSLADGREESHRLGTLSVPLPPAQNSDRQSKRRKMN

T1: CPEB3 (full-length), expressed in mouse neuroblastoma N2A cells (mouse) (UniProt Q7TN99)
T1 sequence: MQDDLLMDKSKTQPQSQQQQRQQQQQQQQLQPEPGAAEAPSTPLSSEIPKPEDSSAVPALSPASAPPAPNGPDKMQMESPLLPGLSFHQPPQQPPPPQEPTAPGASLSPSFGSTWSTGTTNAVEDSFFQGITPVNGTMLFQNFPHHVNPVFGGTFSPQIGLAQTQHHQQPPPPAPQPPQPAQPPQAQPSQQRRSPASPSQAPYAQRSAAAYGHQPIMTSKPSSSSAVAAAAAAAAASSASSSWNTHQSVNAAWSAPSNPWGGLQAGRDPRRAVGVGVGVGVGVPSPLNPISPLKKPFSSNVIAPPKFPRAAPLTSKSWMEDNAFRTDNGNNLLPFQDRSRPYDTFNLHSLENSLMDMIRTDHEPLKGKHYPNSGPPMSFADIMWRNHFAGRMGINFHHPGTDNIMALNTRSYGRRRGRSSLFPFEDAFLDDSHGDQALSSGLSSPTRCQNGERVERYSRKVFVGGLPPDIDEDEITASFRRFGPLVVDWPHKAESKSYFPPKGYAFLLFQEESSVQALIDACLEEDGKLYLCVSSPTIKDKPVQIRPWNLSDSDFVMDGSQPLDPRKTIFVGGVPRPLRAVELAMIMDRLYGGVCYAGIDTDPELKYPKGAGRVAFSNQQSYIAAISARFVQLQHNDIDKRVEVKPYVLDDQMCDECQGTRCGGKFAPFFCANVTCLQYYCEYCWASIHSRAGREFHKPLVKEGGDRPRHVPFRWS

B1: Ckap2 (protein, UniProt Q3V1H1 1-664)
chain: MAESRKRFLGRAARNPLPVTRDLQLPPTRRDQPAFREQRKQKLKEYLLIRKTVFPYKQENQISRDQKMITSEDRVQEGKKVVKLKTEVADKENIESTVEKNCIPLKAGEVTSSEIHNSKDNVQAVQLLSTRDDLPGQTVTLDPACHHKDNKKMQMTAEKPKQDSNVSKKRVLGYYHGQIVQSKINSFRKLPSVKGESLTTTKKLPTTVSKAMKAQSEPANTVSVKASTTAAATKFADAKPVSTASKDTLVRPPIRSLHSSSHGAAKQGLSRPLANVTVRKGMLDKESHRSEPVVSVVKAGSSQAPSRSIASKDAARTDSSNTRLMVKPKDTDQRRYTIAGASVHRSAQLKDTTAERKAQMTEWRTGKGKGLKRPPHSVVTQAEPKGQSENPVGSFWTTMAEEDEQRLFTEKVNKTISECLNLINEGCPKEEILATLNDLIHNIPDAKKLVKYWICLVRIEPITSPIENIISIYEKAILAGAQPIEEMRHIIIDILTTKSQEKVNLGENIEEAHATKEPIQEVNADANVGSGKPGEENEHHGKVEVYEDDQDNKIKDPDLTTPDSKTEAGCIIRYNVSSTPRLQSMKKMQHDKNSTLKELKFLTPVRRSRRIQDKTSRLPAMLKDHDPSVSSLEQLSELGGDAFVCRPNAALCPLFFETDVAEEE
B2: Cmss1 (protein, UniProt Q9CZT6 1-276)
chain: MADDLGDEWWENQPAAASSPEQSGGEEGGDTEMTQQDTAPVPEKTQQPTECFLTQTKEPKAEDSRKTRKWKKKKISDILAKSEPKPGTPEDLQKLIRDHYSSSRSVIELEELHLPDSCFLKANDLTHSLSSYLKEICPKWVKLRKTHNEKKSVLMLILCSSAVRALELIRSLTAFKGDAKVMKLFAKHIKVQEQVKLLEKRVIHLGVGTPGRIKELVKQDGLHLNPLKFLVFDWNWRDQKLRRMMDIPEIRKEVFELLDMGVFSLCKSDSLKLGLF
B3: Ctcf (protein, UniProt Q61164 1-736)
chain: MEGEAVEAIVEESETFIKGKERKTYQRRREGGQEEDACHLPQNQTDGGEVVQDVNSSVQMVMMEQLDPTLLQMKTEVMEGTVAPEAEAAVDDTQIITLQVVNMEEQPINIGELQLVQVPVPVTVPVATTSVEELQGAYENEVSKEGLAESEPMICHTLPLPEGFQVVKVGANGEVETLEQGELPPQEDSSWQKDPDYQPPAKKTKKTKKSKLRYTEEGKDVDVSVYDFEEEQQEGLLSEVNAEKVVGNMKPPKPTKIKKKGVKKTFQCELCSYTCPRRSNLDRHMKSHTDERPHKCHLCGRAFRTVTLLRNHLNTHTGTRPHKCPDCDMAFVTSGELVRHRRYKHTHEKPFKCSMCDYASVEVSKLKRHIRSHTGERPFQCSLCSYASRDTYKLKRHMRTHSGEKPYECYICHARFTQSGTMKMHILQKHTENVAKFHCPHCDTVIARKSDLGVHLRKQHSYIEQGKKCRYCDAVFHERYALIQHQKSHKNEKRFKCDQCDYACRQERHMIMHKRTHTGEKPYACSHCDKTFRQKQLLDMHFKRYHDPNFVPAAFVCSKCGKTFTRRNTMARHADNCAGPDGVEGENGGETKKSKRGRKRKMRSKKEDSSDSEENAEPDLDDNEEEEEPAVEIEPEPEPQPQPPPPPQPVAPAPPPAKKRRGRPPGRTNQPKQNQPTAIIQVEDQNTGAIENIIVEVKKEPDAEPAEGEEEEAQAATTDAPNGDLTPEMILSMMDR
B4: Ddx46 (protein, UniProt Q569Z5 1-1032)
chain: MGRESRHYRKRSASRGRSGSRSRSRSPSDKRSKRGDDRRSRSRDRDRRRERSRSRDKRRSRSRDRKRLRRSRSRERDRSRERRRSRSRDRRRSRSRSRGRRSRSSSPGSKTKKTENRSRSKEKAEGGDSSKEKKKDKDDKEDEKEKDAGNFDQNKLEEEMRKRKERVEKWREEQRKKAMENIGELKKEIEEMKQGKKWSLEDDDDDEDDPAEAEKEGTEMEDEELDPLDAYMEEVKEEVKKFNMRSVKGGAGNEKKSGPTVTKVVTVVTTKKAVVDADKKKGELMENDQDAMEYSSEEEEVDLQTALTGYQTKQRKLLEPVDHGKIEYEPFRKNFYVEVPELAKMSQEEVNVFRLEMEGITVKGKGCPKPIKSWVQCGISMKILNSLKKHGYEKPTPIQTQAIPAIMSGRDLIGIAKTGSGKTIAFLLPMFRHIMDQRSLEEGEGPIAVIMTPTRELALQITKECKKFSKTLGLRVVCVYGGTGISEQIAELKRGAEIIVCTPGRMIDMLAANSGRVTNLRRVTYVVLDEADRMFDMGFEPQVMRIVDNVRPDRQTVMFSATFPRAMEALARRILSKPIEVQVGGRSVVCSDVEQQVIVIEEEKKFLKLLELLGHYQESGSVIIFVDKQEHADGLLKDLMRASYPCMSLHGGIDQYDRDSIINDFKNGTCKLLVATSVAARGLDVKHLILVVNYSCPNHYEDYVHRAGRTGRAGNKGYAYTFITEDQARYAGDIIKALELSGTAVPPDLEKLWSDFKDQQKAEGKIIKKSSGFSGKGFKFDETEQALANERKKLQKAALGLQDSDDEDAAVDIDEQIESMFNSKKRVKDMAAPGTSSVPAPTAGNAEKLEIAKRLALRINAQKNLGIESQVDVMQQATNAILRGGTILAPTVSAKTIAEQLAEKINAKLNYVPLEKQEEERQEGGQSESFKRYEEELEINDFPQTARWKVTSKEALQRISEYSEAAITIRGTYFPPGKEPKEGERKIYLAIESANELAVQKAKAEITRLIKEELIRLQNSYQPTNKGRYKVL
B5: Imp3 (protein, UniProt Q921Y2 1-184)
chain: MVRKLKFHEQKLLKQVDFLNWEVTDHNLHELRVLRRYRLQRREEYTRYNQLSRAVRELARRLRDLPERDPFRVRASAALLDKLYAMGLVPTRGSLELCDSVSASSFCRRRLPTLLLKLRMAQHLQAAVAFVEQGHVRVGPDVVTDPAFLVTRSMEDFVTWVDSSKIKRHVLEYNEERDDFDLDA
B6: Kif4 (protein, UniProt P33174 1-1231)
chain: MKEEVKGIPVRVALRCRPLVSKEIKEGCQTCLSFVPGEPQVVVGNDKSFTYDFVFDPSTEQEEVFNTAVAPLIKGVFKGYNATVLAYGQTGSGKTYSMGGAYTAEQEHDSAIGVIPRVIQLLFKEINKKSDFEFTLKVSYLEIYNEEILDLLCSSREKATQINIREDPKEGIKIVGLTEKTVLVASDTVSCLEQGNNSRTVASTAMNSQSSRSHAIFTISIEQRKKNDKNSSFRSKLHLVDLAGSERQKKTKAEGDRLREGININRGLLCLGNVISALGDDKKGNFVPYRDSKLTRLLQDSLGGNSHTLMIACVSPADSNLEETLNTLRYADRARKIKNKPIINIDPQAAELNHLKQQVQQLQILLLQAHGGTLPGDINVEPSENLQSLMEKNQSLVEENEKLSRGLSEAAGQTAQMLERIILTEQANEKMNAKLEELRRHAACKVDLQKLVETLEDQELKENIEIICNLQQVIAQLSDEAAACMTATIDTAGEADTQVQSSPDTSRSSDVFSTQHALRQAQMSKELIELNKALALKEALAKKMTQNDNQLQPIQFQYQDNIKNLESEVLSLQREKEELVLELQTAKKDANQAKLSERRRKRLQELEGQIADLKKKLQEQSKLLKLKESTEHTVSKLNQEIRMMKNQRVQLMRQMKEDAEKFRQWKQQKDKEVIQLKERDRKRQYELLKLERNFQKQSNVLRRKTEEAAAANKRLKDALQKQKEVAEKRKETQSRGMESTAARMKNWLGNEIEVMVSTEEAKRHLNGLLEERKILAQDVAQLKEKRESGENPPLKLRRRTFSYDEIHGQDSGAEDSIAKQIESLETELELRSAQIADLQQKLLDAESEDRPKQRWESIATILEAKCAIKYLVGELVSSKILVSKLESSLNQSKASCIDVQKMLFEEQNHFAKIETELKEELVKVEQQHQEKVLYLLSQLQQSQMTEKQLEESVSEKEQQLLSTLKCQEEELRKMQEVCEQNQQLLQENSAIKQKLTLLQVASKQKPHLTRNIFQSPDSSFEYIPPKPKPCRIKEKCLEQSFAVEGLQYYSEPSVAEQDNEDSDDHADEEWIPTKLVKVSKKSIQGCSCKGWCGNKQCGCRKQKSDCNVSCSCDPTKCRNRHQNQDNSDAIELNQDSENSFKLEDPTEVTSGLSFFHPICATPSSKILKEMCDADQVQLKQPVFVSSSDHPELKSIASESQENKAIGKKKKRALASNTSFFSGCSPIQEESH

Each molecule was assayed against T1, CPEB3 (full-length), expressed in mouse neuroblastoma N2A cells (mouse) (assay: affinity purification with mass spectrometry; interactomes of N2A-expressed CPEB3 and S240-242A compared (Fischer's test); immunoprecipitation from RIPA + NEM lysate, LC-MS/MS).

**Q.** Bop1 (from UniProt P97452 1-732) was tested. Which binding did it give?
**A.** The binding was “binds”.

**Q.** “FMR1 Autosomal Homolog 1 (from UniProt Q61584 1-677)” was tested. Which binding did it give?
**A.** The binding was “binds”.

**Q.** Which binding does the source give for Mark4 (from UniProt Q8CIP4 1-752) here?
**A.** The binding was “binds”.

**Q.** Msh6 (from UniProt P54276 1-1358) was tested. Which binding did it give?
**A.** The binding was “binds”.

**Q.** Pard3 (from UniProt Q99NH2 1-1333) was tested. Which binding did it give?
**A.** Its binding is “binds”.

**Q.** Which binding does the source give for Phf8 (from UniProt Q80TJ7 1-1023) here?
**A.** The binding was “binds”.

**Q.** For Polr1e (from UniProt Q8K202 1-482), which binding is on record?
**A.** Its binding is “binds”.

**Q.** How did the binding turn out when B1 was run?
**A.** Its binding is “binds”.

**Q.** For B2, which binding is on record?
**A.** Its binding is “binds”.

**Q.** B3 was tested. Which binding did it give?
**A.** The binding was “binds”.

**Q.** With B4 as the molecule, how does the binding read?
**A.** Its binding is “binds”.

**Q.** Which binding does the source give for B5 here?
**A.** Its binding is “binds”.

**Q.** B6 was tested. Which binding did it give?
**A.** The binding was “binds”.
